# Experiment: in vitro
# Settings: African green monkey
smiles,measurement,value
CCC(CC)COC(=O)[C@H](C)N[P@](=O)(OC[C@H]1O[C@@](C#N)(c2ccc3c(N)ncnn23)[C@H](O)[C@@H]1O)Oc1ccccc1 [Remdesivir],CC50 at 72 h,> 50 µM

# From US20230416692A1 (BOARD OF REGENTS, THE UNIVERSITY OF TEXAS SYSTEM, priority 2020, published 2023)
